Measured values: the supplement of paper PMC8728848
The list shows a part of the results.

Tests used:
Assay in all cases: glycan array binding signal (z-score within array); higher = stronger binding
Conditions in all cases: glycan notation: IUPAC condensed, linker removed
[1] = target: Fuc(a1-2)[Gal(a1-3)]Gal(b1-4)GlcNAc(b1-2)Man(a1-3)[Fuc(a1-2)[Gal(a1-3)]Gal(b1-4)GlcNAc(b1-2)Man(a1-6)]Man(b1-4)GlcNAc(b1-4)GlcNAc
Method in brief: (§1)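 The Consortium for Functional Glycomics database supplied 3228 glycan arrays, of which those lacking an available protein sequence were dropped. The binding signal, a within-array Z-score, was averaged across arrays of the same protein sequence and across linkers. Negative scores can be read as non-binding.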

[2] = target: Fuc(a1-2)[Gal(a1-3)]Gal(b1-4)GlcNAc(b1-2)Man(a1-3)[Fuc(a1-2)[Gal(a1-3)]Gal(b1-4)GlcNAc(b1-2)Man(a1-6)]Man(b1-4)GlcNAc(b1-4)[Fuc(a1-6)]GlcNAc
Method in brief: as §1

[3] = target: Fuc(a1-2)[Gal(a1-3)]Gal(b1-4)GlcNAc(b1-3)GalNAc
Method in brief: as §1

[4] = target: Fuc(a1-2)[Gal(a1-3)]Gal(b1-4)GlcNAc(b1-3)[Fuc(a1-2)[Gal(a1-3)]Gal(b1-4)GlcNAc(b1-6)]GalNAc
Method in brief: as §1

[5] = target: Fuc(a1-2)[Gal(a1-3)]Gal(b1-4)GlcNAc(b1-6)GalNAc
Method in brief: as §1

[6] = target: Fuc(a1-2)[Gal(a1-3)]Gal(b1-4)[Fuc(a1-3)]Glc
Method in brief: as §1

[7] = target: Fuc(a1-2)[Gal(a1-3)]Gal(b1-4)[Fuc(a1-3)]GlcNAc
Method in brief: as §1

[8] = target: Fuc(a1-2)[Gal(a1-3)]Gal(b1-4)[Fuc(a1-3)]GlcNAc(b1-3)GalNAc
Method in brief: as §1

[9] = target: Fuc(a1-2)[Gal(a1-4)]Gal(b1-4)GlcNAc
Method in brief: as §1

[10] = target: Fuc(a1-2)[GalNAc(a1-3)]Gal
Method in brief: as §1

[11] = target: Fuc(a1-2)[GalNAc(a1-3)]Gal(b1-3)GalNAc(a1-3)[Fuc(a1-2)]Gal(b1-4)GlcNAc
Method in brief: as §1

[12] = target: Fuc(a1-2)[GalNAc(a1-3)]Gal(b1-3)GalNAc(b1-3)Gal(a1-4)Gal(b1-4)Glc
Method in brief: as §1

[13] = target: Fuc(a1-2)[GalNAc(a1-3)]Gal(b1-3)GlcNAc
Method in brief: as §1

[14] = target: Fuc(a1-2)[GalNAc(a1-3)]Gal(b1-3)GlcNAc(b1-2)Man(a1-3)[Fuc(a1-2)[GalNAc(a1-3)]Gal(b1-3)GlcNAc(b1-2)Man(a1-6)]Man(b1-4)GlcNAc(b1-4)GlcNAc
Method in brief: as §1

[15] = target: Fuc(a1-2)[GalNAc(a1-3)]Gal(b1-3)GlcNAc(b1-2)Man(a1-3)[Fuc(a1-2)[GalNAc(a1-3)]Gal(b1-3)GlcNAc(b1-2)Man(a1-6)]Man(b1-4)GlcNAc(b1-4)[Fuc(a1-6)]GlcNAc
Method in brief: as §1

[16] = target: Fuc(a1-2)[GalNAc(a1-3)]Gal(b1-3)GlcNAc(b1-3)GalNAc
Method in brief: as §1

[17] = target: Fuc(a1-2)[GalNAc(a1-3)]Gal(b1-3)GlcNAc(b1-6)GalNAc
Method in brief: as §1

[18] = target: Fuc(a1-2)[GalNAc(a1-3)]Gal(b1-4)Glc
Method in brief: as §1

[19] = target: Fuc(a1-2)[GalNAc(a1-3)]Gal(b1-4)GlcNAc
Method in brief: as §1

[20] = target: Fuc(a1-2)[GalNAc(a1-3)]Gal(b1-4)GlcNAc(b1-2)Man
Method in brief: as §1

[21] = target: Fuc(a1-2)[GalNAc(a1-3)]Gal(b1-4)GlcNAc(b1-2)Man(a1-3)[Fuc(a1-2)[GalNAc(a1-3)]Gal(b1-4)GlcNAc(b1-2)Man(a1-6)]Man(b1-4)GlcNAc(b1-4)GlcNAc
Method in brief: as §1

[22] = target: Fuc(a1-2)[GalNAc(a1-3)]Gal(b1-4)GlcNAc(b1-2)Man(a1-3)[Fuc(a1-2)[GalNAc(a1-3)]Gal(b1-4)GlcNAc(b1-2)Man(a1-6)]Man(b1-4)GlcNAc(b1-4)[Fuc(a1-6)]GlcNAc
Method in brief: as §1

[23] = target: Fuc(a1-2)[GalNAc(a1-3)]Gal(b1-4)GlcNAc(b1-3)Gal(b1-4)GlcNAc
Method in brief: as §1

[24] = target: Fuc(a1-2)[GalNAc(a1-3)]Gal(b1-4)GlcNAc(b1-3)Gal(b1-4)GlcNAc(b1-3)Gal(b1-4)GlcNAc
Method in brief: as §1

[25] = target: Fuc(a1-2)[GalNAc(a1-3)]Gal(b1-4)GlcNAc(b1-3)GalNAc
Method in brief: as §1

[26] = target: Fuc(a1-2)[GalNAc(a1-3)]Gal(b1-4)GlcNAc(b1-3)[Fuc(a1-2)[GalNAc(a1-3)]Gal(b1-4)GlcNAc(b1-6)]GalNAc
Method in brief: as §1

[27] = target: Fuc(a1-2)[GalNAc(a1-3)]Gal(b1-4)GlcNAc(b1-6)GalNAc
Method in brief: as §1

[28] = target: Fuc(a1-2)[GalNAc(a1-3)]Gal(b1-4)[Fuc(a1-3)]GlcNAc
Method in brief: as §1

[29] = target: Fuc(a1-2)[GalNAc(a1-3)]Gal(b1-4)[Fuc(a1-3)]GlcNAc(b1-3)GalNAc
Method in brief: as §1

[30] = target: Fuc(a1-2)[GalNAc(a1-4)]Gal(b1-4)GlcNAc
Method in brief: as §1

[31] = target: Fuc(a1-2)[GalNAc(b1-3)]Gal
Method in brief: as §1

[32] = target: Fuc(a1-3)GlcNAc
Method in brief: as §1

[33] = target: Fuc(a1-3)[Gal(b1-4)]Glc6S
Method in brief: as §1

[34] = target: Fuc(a1-3)[Gal(b1-4)]GlcNAc
Method in brief: as §1

[35] = target: Fuc(a1-3)[Gal(b1-4)]GlcNAc(b1-2)Man
Method in brief: as §1

[36] = target: Fuc(a1-3)[Gal(b1-4)]GlcNAc(b1-2)Man(a1-3)[Fuc(a1-3)[Gal(b1-4)]GlcNAc(b1-2)Man(a1-6)]Man(b1-4)GlcNAc(b1-4)GlcNAc
Method in brief: as §1

[37] = target: Fuc(a1-3)[Gal(b1-4)]GlcNAc(b1-2)Man(a1-3)[Fuc(a1-3)[Gal(b1-4)]GlcNAc(b1-2)Man(a1-6)]Man(b1-4)GlcNAc(b1-4)[Fuc(a1-6)]GlcNAc
Method in brief: as §1

[38] = target: Fuc(a1-3)[Gal(b1-4)]GlcNAc(b1-3)Gal(b1-3)[Fuc(a1-4)]GlcNAc
Method in brief: as §1

[39] = target: Fuc(a1-3)[Gal(b1-4)]GlcNAc(b1-3)Gal(b1-4)[Fuc(a1-3)]GlcNAc
Method in brief: as §1

[40] = target: Fuc(a1-3)[Gal(b1-4)]GlcNAc(b1-3)Gal(b1-4)[Fuc(a1-3)]GlcNAc(b1-3)Gal(b1-4)[Fuc(a1-3)]GlcNAc
Method in brief: as §1

[41] = target: Fuc(a1-3)[Gal(b1-4)]GlcNAc(b1-3)GalNAc
Method in brief: as §1

[42] = target: Fuc(a1-3)[Gal(b1-4)]GlcNAc(b1-6)GalNAc
Method in brief: as §1

[43] = target: Fuc(a1-3)[Gal(b1-4)]GlcNAc(b1-6)[Gal(b1-3)GlcNAc(b1-3)]Gal(b1-4)Glc
Method in brief: as §1

[44] = target: Fuc(a1-3)[Gal(b1-4)]GlcNAc6S
Method in brief: as §1

[45] = target: Fuc(a1-3)[Gal3S(b1-4)]Glc
Method in brief: as §1

[46] = target: Fuc(a1-3)[Gal3S(b1-4)]GlcNAc
Method in brief: as §1

[47] = target: Fuc(a1-3)[Gal3S(b1-4)]GlcNAc6S
Method in brief: as §1

[48] = target: Fuc(a1-3)[GalNAc(b1-4)]GlcNAc
Method in brief: as §1

[49] = target: Fuc(a1-3)[GalNAc(b1-4)]GlcNAc6S
Method in brief: as §1

[50] = target: Fuc(a1-4)GlcNAc
Method in brief: as §1

[51] = target: Fuc(b1-3)GlcNAc
Method in brief: as §1

[52] = target: Gal(a1-2)Gal
Method in brief: as §1

[53] = target: Gal(a1-3)Gal
Method in brief: as §1

[54] = target: Gal(a1-3)Gal(b1-3)GlcNAc
Method in brief: as §1

[55] = target: Gal(a1-3)Gal(b1-3)GlcNAc(b1-2)Man
Method in brief: as §1

[56] = target: Gal(a1-3)Gal(b1-3)GlcNAc(b1-2)Man(a1-3)[Gal(a1-3)Gal(b1-3)GlcNAc(b1-2)Man(a1-6)]Man(b1-4)GlcNAc(b1-4)GlcNAc
Method in brief: as §1

[57] = target: Gal(a1-3)Gal(b1-3)GlcNAc(b1-3)GalNAc
Method in brief: as §1

[58] = target: Gal(a1-3)Gal(b1-3)GlcNAc(b1-6)GalNAc
Method in brief: as §1

[59] = target: Gal(a1-3)Gal(b1-3)[Fuc(a1-4)]GlcNAc(b1-2)Man(a1-3)[Gal(a1-3)Gal(b1-3)[Fuc(a1-4)]GlcNAc(b1-2)Man(a1-6)]Man(b1-4)GlcNAc(b1-4)GlcNAc
Method in brief: as §1

[60] = target: Gal(a1-3)Gal(b1-4)Glc
Method in brief: as §1

B1: LlpA (Arthrobacter sp) (protein)
chain: MGSSHHHHHHSSGLVPRGSHMTLHPETALRPGAAATSPNSRYRLLYQTDGNLVLYGPDGPLWDSGTNGHGAGACIMQADGNLVLYGPNDEYVWDTETDNNPGSRLVIQDDGNAVIYRPDGSPLWATETCQPPGSADSHVLQSGSTLTPTHGIRSANGLYGLLYQTDGNLVFYGPDGPLWDSGTNGRGAGACIMQPDGNLVLYGPHDEYVWDTETDNNPGSRLVIQDDGNAVIYRPDGNPTWVTGTH
For B1, the “glycan array binding signal (z-score)” value [1] was -0.516, the “glycan array binding signal (z-score)” value [2] was -0.739 and the “glycan array binding signal (z-score)” value [3] was -0.279. The “glycan array binding signal (z-score)” value [4] was 0.533, the “glycan array binding signal (z-score)” value [5] was -0.726 and the “glycan array binding signal (z-score)” value [6] was -1.15. For the same binder, the “glycan array binding signal (z-score)” value [7] was 0.864, the “glycan array binding signal (z-score)” value [8] was 0.472 and the “glycan array binding signal (z-score)” value [9] was 1.22. The “glycan array binding signal (z-score)” value [10] was -0.082, the “glycan array binding signal (z-score)” value [11] was -0.066 and the “glycan array binding signal (z-score)” value [12] was -0.033. For the same binder, the “glycan array binding signal (z-score)” value [13] was 0.25, the “glycan array binding signal (z-score)” value [14] was -0.304 and the “glycan array binding signal (z-score)” value [15] was -0.119. The “glycan array binding signal (z-score)” value [16] was 2.37, the “glycan array binding signal (z-score)” value [17] was -1.27 and the “glycan array binding signal (z-score)” value [18] was -0.96. For the same binder, the “glycan array binding signal (z-score)” value [19] was -1.17, the “glycan array binding signal (z-score)” value [20] was -0.746 and the “glycan array binding signal (z-score)” value [21] was 0.566. The “glycan array binding signal (z-score)” value [22] was 1.79, the “glycan array binding signal (z-score)” value [23] was -0.334 and the “glycan array binding signal (z-score)” value [24] was 0.339. For the same binder, the “glycan array binding signal (z-score)” value [25] was -1.12, the “glycan array binding signal (z-score)” value [26] was -0.209 and the “glycan array binding signal (z-score)” value [27] was -1.78. For the same binder, the “glycan array binding signal (z-score)” value [28] was 0.016, the “glycan array binding signal (z-score)” value [29] was 0.653 and the “glycan array binding signal (z-score)” value [30] was 1.18. For the same binder, the “glycan array binding signal (z-score)” value [31] was -0.918, the “glycan array binding signal (z-score)” value [32] was -0.654 and the “glycan array binding signal (z-score)” value [33] was 0.121. The “glycan array binding signal (z-score)” value [34] was -0.668, the “glycan array binding signal (z-score)” value [35] was -1.69 and the “glycan array binding signal (z-score)” value [36] was 1.18. For the same binder, the “glycan array binding signal (z-score)” value [37] was -0.24, the “glycan array binding signal (z-score)” value [38] was -0.714 and the “glycan array binding signal (z-score)” value [39] was 1.02. The “glycan array binding signal (z-score)” value [40] was 0.796, the “glycan array binding signal (z-score)” value [41] was -0.551 and the “glycan array binding signal (z-score)” value [42] was -0.86. The “glycan array binding signal (z-score)” value [43] was -0.159, the “glycan array binding signal (z-score)” value [44] was 1.84 and the “glycan array binding signal (z-score)” value [45] was -0.034. The “glycan array binding signal (z-score)” value [46] was 0.665, the “glycan array binding signal (z-score)” value [47] was 0.757 and the “glycan array binding signal (z-score)” value [48] was 0.003. For the same binder, the “glycan array binding signal (z-score)” value [49] was -0.21, the “glycan array binding signal (z-score)” value [50] was 0.825 and the “glycan array binding signal (z-score)” value [51] was -0.675. The “glycan array binding signal (z-score)” value [52] was 0.948, the “glycan array binding signal (z-score)” value [53] was 0.304 and the “glycan array binding signal (z-score)” value [54] was 0.672. The “glycan array binding signal (z-score)” value [55] was -0.063, the “glycan array binding signal (z-score)” value [56] was 0.575 and the “glycan array binding signal (z-score)” value [57] was -0.548. For the same binder, the “glycan array binding signal (z-score)” value [58] was 0.247, the “glycan array binding signal (z-score)” value [59] was 0.168 and the “glycan array binding signal (z-score)” value [60] was 0.314.
